Results: the supplement of paper PMC8612539
≈ marks a conversion by molar mass, not a printed value. This continues a long series; more values of the same kind are listed elsewhere.

Assays:
Mannheimia haemolytica = test: minimum inhibitory concentration (MIC)
Method: (§1)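 Broth microdilution MIC (Sensititre BOPO7F bovine plate, CLSI methods) of 19 antimicrobials against field isolates of P. multocida, M. haemolytica, H. somni (deep nasopharyngeal swabs) and E. coli, Enterococcus spp. (rectal swabs) from weaned dairy heifers. Incubation 16-24 h at 35 C. MIC is the lowest concentration preventing visible growth. Values with <= or > lie at the tested range limits. Trimethoprim-sulfamethoxazole is given as the trimethoprim component of a 1:19 mixture.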

Pasteurella multocida = test: minimum inhibitory concentration (MIC)
Method: as §1

CC1(C)S[C@@H]2[C@H](NC(=O)[C@H](N)c3ccccc3)C(=O)N2[C@H]1C(=O)O [Ampicillin]
minimum inhibitory concentration [µg/mL]
Conditions	Mannheimia haemolytica	Pasteurella multocida
isolate (source animal id): 3	≤ 0.25	–
isolate (source animal id): 30	–	≤ 0.25
isolate (source animal id): 34	–	≤ 0.25
isolate (source animal id): 36	–	≤ 0.25
isolate (source animal id): 37	–	≤ 0.25
isolate (source animal id): 46	–	≤ 0.25
isolate (source animal id): 48	–	≤ 0.25
isolate (source animal id): 49	–	≤ 0.25
isolate (source animal id): 54	–	≤ 0.25
isolate (source animal id): 55	–	≤ 0.25
isolate (source animal id): 58	–	≤ 0.25
isolate (source animal id): 60	≤ 0.25	≤ 0.25
isolate (source animal id): 61	> 16	16 (≈ 45.8 µM)
isolate (source animal id): 63	–	≤ 0.25
isolate (source animal id): 64	≤ 0.25	≤ 0.25
isolate (source animal id): 65	> 16	16 (≈ 45.8 µM)
isolate (source animal id): 66	≤ 0.25	≤ 0.25
isolate (source animal id): 67	≤ 0.25	≤ 0.25
isolate (source animal id): 68	≤ 0.25	–
isolate (source animal id): 69	–	≤ 0.25
isolate (source animal id): 70	≤ 0.25	–
isolate (source animal id): 72	≤ 0.25	–
isolate (source animal id): 73	–	≤ 0.25
isolate (source animal id): 74	> 16	–
isolate (source animal id): 75	–	≤ 0.25
isolate (source animal id): 76	≤ 0.25	≤ 0.25
isolate (source animal id): 77	–	≤ 0.25
isolate (source animal id): 78	–	≤ 0.25
isolate (source animal id): 80	> 16	≤ 0.25
isolate (source animal id): 82	≤ 0.25	≤ 0.25
isolate (source animal id): 83	≤ 0.25	≤ 0.25
isolate (source animal id): 84	≤ 0.25	–
isolate (source animal id): 85	≤ 0.25	–
isolate (source animal id): 86	≤ 0.25	–
isolate (source animal id): 87	≤ 0.25	–
isolate (source animal id): 88	–	≤ 0.25
isolate (source animal id): 92	–	≤ 0.25
isolate (source animal id): 94	–	≤ 0.25
isolate (source animal id): 318	–	≤ 0.25
isolate (source animal id): 319	–	≤ 0.25
isolate (source animal id): 320	–	≤ 0.25
isolate (source animal id): 321	–	≤ 0.25
isolate (source animal id): 322	–	≤ 0.25
isolate (source animal id): 324	–	≤ 0.25
isolate (source animal id): 325	–	≤ 0.25
isolate (source animal id): 328	–	≤ 0.25
isolate (source animal id): 330	–	≤ 0.25
isolate (source animal id): 331	–	≤ 0.25
isolate (source animal id): 333	–	≤ 0.25
isolate (source animal id): 336	–	≤ 0.25
isolate (source animal id): 337	–	≤ 0.25
isolate (source animal id): 339	–	0.5 (≈ 1.43 µM)
isolate (source animal id): 340	–	≤ 0.25
isolate (source animal id): 341	–	≤ 0.25

COc1cc(NS(=O)(=O)c2ccc(N)cc2)nc(OC)n1 [sulfadimethoxine]
minimum inhibitory concentration [µg/mL]
Conditions	Mannheimia haemolytica	Pasteurella multocida
isolate (source animal id): 3	> 256	–
isolate (source animal id): 30	–	> 256
isolate (source animal id): 34	–	> 256
isolate (source animal id): 36	–	> 256
isolate (source animal id): 37	–	> 256
isolate (source animal id): 46	–	> 256
isolate (source animal id): 48	–	> 256
isolate (source animal id): 49	–	> 256
isolate (source animal id): 54	–	> 256
isolate (source animal id): 55	–	> 256
isolate (source animal id): 58	–	> 256
isolate (source animal id): 60	> 256	> 256
isolate (source animal id): 61	> 256	> 256
isolate (source animal id): 63	–	> 256
isolate (source animal id): 64	> 256	> 256
isolate (source animal id): 65	> 256	> 256
isolate (source animal id): 66	> 256	> 256
isolate (source animal id): 67	> 256	> 256
isolate (source animal id): 68	> 256	–
isolate (source animal id): 69	–	> 256
isolate (source animal id): 70	> 256	–
isolate (source animal id): 72	> 256	–
isolate (source animal id): 73	–	> 256
isolate (source animal id): 74	> 256	–
isolate (source animal id): 75	–	> 256
isolate (source animal id): 76	> 256	> 256
isolate (source animal id): 77	–	> 256
isolate (source animal id): 78	–	> 256
isolate (source animal id): 80	> 256	> 256
isolate (source animal id): 82	> 256	> 256
isolate (source animal id): 83	≤ 256	> 256
isolate (source animal id): 84	> 256	–
isolate (source animal id): 85	> 256	–
isolate (source animal id): 86	> 256	–
isolate (source animal id): 87	> 256	–
isolate (source animal id): 88	–	> 256
isolate (source animal id): 92	–	> 256
isolate (source animal id): 94	–	> 256
isolate (source animal id): 318	–	> 256
isolate (source animal id): 319	–	> 256
isolate (source animal id): 320	–	> 256
isolate (source animal id): 321	–	> 256
isolate (source animal id): 322	–	> 256
isolate (source animal id): 324	–	> 256
isolate (source animal id): 325	–	> 256
isolate (source animal id): 328	–	> 256
isolate (source animal id): 330	–	> 256
isolate (source animal id): 331	–	> 256
isolate (source animal id): 333	–	> 256
isolate (source animal id): 336	–	> 256
isolate (source animal id): 337	–	> 256
isolate (source animal id): 339	–	> 256
isolate (source animal id): 340	–	> 256
isolate (source animal id): 341	–	> 256

CC[C@H]1OC(=O)C[C@@H](O)[C@H](C)[C@@H](O[C@@H]2O[C@H](C)[C@@H](O[C@H]3C[C@@](C)(O)[C@@H](O)[C@H](C)O3)[C@H](N(C)C)[C@H]2O)[C@@H](CC=O)C[C@@H](C)C(=O)/C=C/C(C)=C/[C@@H]1CO[C@@H]1O[C@H](C)[C@@H](O)[C@@H](OC)[C@H]1OC [Tylosin]
minimum inhibitory concentration [µg/mL]
Conditions	Mannheimia haemolytica	Pasteurella multocida
isolate (source animal id): 3	32 (≈ 34.9 µM)	–
isolate (source animal id): 30	–	> 32
isolate (source animal id): 34	–	> 32
isolate (source animal id): 36	–	> 32
isolate (source animal id): 37	–	> 32
isolate (source animal id): 46	–	32 (≈ 34.9 µM)
isolate (source animal id): 48	–	> 32
isolate (source animal id): 49	–	> 32
isolate (source animal id): 54	–	> 32
isolate (source animal id): 55	–	> 32
isolate (source animal id): 58	–	32 (≈ 34.9 µM)
isolate (source animal id): 60	> 32	> 32
isolate (source animal id): 61	> 32	> 32
isolate (source animal id): 63	–	> 32
isolate (source animal id): 64	32 (≈ 34.9 µM)	32 (≈ 34.9 µM)
isolate (source animal id): 65	> 32	> 32
isolate (source animal id): 66	> 32	> 32
isolate (source animal id): 67	> 32	> 32
isolate (source animal id): 68	32 (≈ 34.9 µM)	–
isolate (source animal id): 69	–	> 32
isolate (source animal id): 70	> 32	–
isolate (source animal id): 72	> 32	–
isolate (source animal id): 73	–	> 32
isolate (source animal id): 74	> 32	–
isolate (source animal id): 75	–	> 32
isolate (source animal id): 76	32 (≈ 34.9 µM)	> 32
isolate (source animal id): 77	–	> 32
isolate (source animal id): 78	–	> 32
isolate (source animal id): 80	> 32	> 32
isolate (source animal id): 82	> 32	> 32
isolate (source animal id): 83	> 32	> 32
isolate (source animal id): 84	> 32	–
isolate (source animal id): 85	> 32	–
isolate (source animal id): 86	> 32	–
isolate (source animal id): 87	> 32	–
isolate (source animal id): 88	–	> 32
isolate (source animal id): 92	–	> 32
isolate (source animal id): 94	–	> 32
isolate (source animal id): 318	–	> 32
isolate (source animal id): 319	–	> 32
isolate (source animal id): 320	–	> 32
isolate (source animal id): 321	–	> 32
isolate (source animal id): 322	–	> 32
isolate (source animal id): 324	–	> 32
isolate (source animal id): 325	–	> 32
isolate (source animal id): 328	–	> 32
isolate (source animal id): 330	–	> 32
isolate (source animal id): 331	–	> 32
isolate (source animal id): 333	–	> 32
isolate (source animal id): 336	–	> 32
isolate (source animal id): 337	–	> 32
isolate (source animal id): 339	–	> 32
isolate (source animal id): 340	–	> 32
isolate (source animal id): 341	–	> 32
